# Source: the supplement of paper PMC6411743
# ± gives the standard deviation of the averaged measurements. The list shows a part of the results.
# Target: T1, UniProt P23381 and related entries
# T1 sequence (whole entry): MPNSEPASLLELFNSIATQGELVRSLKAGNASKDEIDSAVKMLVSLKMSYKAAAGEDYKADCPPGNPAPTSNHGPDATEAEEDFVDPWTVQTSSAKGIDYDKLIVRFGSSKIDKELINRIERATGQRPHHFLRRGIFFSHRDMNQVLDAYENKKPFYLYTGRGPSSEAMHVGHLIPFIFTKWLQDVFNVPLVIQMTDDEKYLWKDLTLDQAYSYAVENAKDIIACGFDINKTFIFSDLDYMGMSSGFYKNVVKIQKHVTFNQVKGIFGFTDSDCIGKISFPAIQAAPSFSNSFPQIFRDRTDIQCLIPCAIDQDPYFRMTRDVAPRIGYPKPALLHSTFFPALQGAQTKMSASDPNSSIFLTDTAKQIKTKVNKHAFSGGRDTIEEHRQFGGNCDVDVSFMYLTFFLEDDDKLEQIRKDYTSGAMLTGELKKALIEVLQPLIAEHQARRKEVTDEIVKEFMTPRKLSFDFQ
# Assay: NP40-soluble protein abundance relative to vehicle (solubility fold change) (ratio); higher = more soluble protein in presence of GTP
# Method: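 Solubility proteome profiling in Jurkat crude lysate. Lysate was treated with Mg-GTP (0.1-10 mM) for 10 min at room temperature and 3 min at 37 °C, then solubilised with 0.8% NP40 and benzonase, followed by ultracentrifugation. Proteins were quantified by TMT10 LC-MS/MS; the value is the NP40-soluble abundance relative to the NP40-processed vehicle, from 3 independent experiments.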
structure (smiles),measurement,setting,value
Nc1nc2c(ncn2[C@@H]2O[C@H](COP(=O)(O)OP(=O)(O)OP(=O)(O)O)[C@@H](O)[C@H]2O)c(=O)[nH]1 [guanosine triphosphate],NP40-soluble protein abundance,concentration: 0.1mM,0.985 ± 0.024
same,NP40-soluble protein abundance,concentration: 0.5mM,1 ± 0.045
same,NP40-soluble protein abundance,concentration: 1mM,0.979 ± 0.016
same,NP40-soluble protein abundance,concentration: 2mM,0.963 ± 0.027
same,NP40-soluble protein abundance,concentration: 4mM,0.946 ± 0.047
same,NP40-soluble protein abundance,concentration: 6mM,0.928 ± 0.026
same,NP40-soluble protein abundance,concentration: 8mM,0.932 ± 0.047
same,NP40-soluble protein abundance,concentration: 10mM,0.901 ± 0.055
